Results are given in words; binding and its absence hold for the method and conditions named. In cells and extracts the contact can be indirect. Here binding means that the protein was enriched with, or labelled near, the bait; the list need not be complete. Values belong to the binder of their own block, whether it stands above or below them.
Biological target: Med17-HA (S. cerevisiae (endogenous in S288c)) (UniProt P32569)
Test: affinity purification with mass spectrometry; CoIP of Med17-HA on anti-HA magnetic beads from cryoground yeast lysate, 2 h at 4 °C; 20 mM HEPES pH 7.5, 300 mM KOAc, 10% glycerol, 0.01% NP-40, 6 mM MnSO4, 1 mM DTT, Cyanase nuclease; parallel control CoIP from 15N-labelled wild type cells, mixing after purification (MAP); GeLC-MS/MS, three biological replicates

Amino acid sequences for entries named in this document (tags omitted).
UniProt P32569: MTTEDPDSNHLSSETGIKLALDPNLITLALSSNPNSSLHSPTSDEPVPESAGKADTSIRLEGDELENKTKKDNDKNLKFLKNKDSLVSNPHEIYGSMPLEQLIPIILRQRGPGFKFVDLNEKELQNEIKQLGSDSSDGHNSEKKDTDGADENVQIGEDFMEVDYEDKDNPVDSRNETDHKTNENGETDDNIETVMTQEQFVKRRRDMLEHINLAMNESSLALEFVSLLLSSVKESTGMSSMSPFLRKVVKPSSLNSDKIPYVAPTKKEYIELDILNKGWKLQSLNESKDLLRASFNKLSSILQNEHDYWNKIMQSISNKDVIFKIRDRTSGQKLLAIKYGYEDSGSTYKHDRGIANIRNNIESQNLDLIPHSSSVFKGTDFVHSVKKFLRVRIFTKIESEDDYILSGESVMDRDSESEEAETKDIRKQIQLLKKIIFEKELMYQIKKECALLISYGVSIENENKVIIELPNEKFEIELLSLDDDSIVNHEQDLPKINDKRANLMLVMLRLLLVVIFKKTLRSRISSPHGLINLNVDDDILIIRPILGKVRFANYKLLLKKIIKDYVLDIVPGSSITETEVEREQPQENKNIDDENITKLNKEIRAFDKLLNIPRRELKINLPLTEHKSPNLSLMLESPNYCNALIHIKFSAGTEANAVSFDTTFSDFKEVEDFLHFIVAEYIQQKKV

B1: Noc3 (protein, UniProt Q07896 1-663)
chain: MAKRNRSQFRIQERTAKKRKHEDSLLEGNVFQNAPEDMDENTIYSAKGSSWDEEEQDYEMVPRKNRSDTSNLVEGLPIKVNGKVERKLHKAQEKPKDDDEEDEDSNDSSEDDEGPNEEQEAEAKEDEPDTEEKILQLKEDIADLVTKVMEEPEENTAALGRLCKMVESKNPNTCKFSMLALVPVFKSIIPGYRIRPLTETEKKEKVSKEVSKLRNFEQALVYNYKNYVGRLQSLSKTPSNAAPIQVSLGILATQAAKELISTASHFNFRTDIFTLLLRRICKPRISTDPTSIQIIQTFETLLNEDEEGSISFEILRIFNKILKTRNFNIEESVLNMLLSLDVLHDYDPNTKLKGNVSAPKLKKKDRVHLSKKQRKARKEMQQIEEEMRNAEQAVSAEERERNQSEILKIVFTIYLNILKNNAKTLIGSVLEGLTKFGNMANFDLLGDFLEVMKELISDTEFDNLSSAEVRKALLCIVSAFSLISNTQYMKVNVDLSKFVDGLYALLPYICLDADIELSYRSLRLADPLNNEIIKPSVNVSTKAELLLKALDHVFFRSKSGTKERATAFTKRLYMCISHTPEKTSIAILKFIDKLMNRYPEISGLYSSEDRIGNGHFIMEADNPSRSNPEAATLWDNALLEKHYCPVVTKGLRSLSSRSKECSK
binding: binds

B2: Nop4 (protein, UniProt P37838 1-685)
chain: MEETIENVEVPSSNVSKQNDDGLDMKTLFVRSIPQDVTDEQLADFFSNFAPIKHAVVVKDTNKRSRGFGFVSFAVEDDTKEALAKARKTKFNGHILRVDIAKRRDRSKKTSEVVEKSTPESSEKITGQNNEDEDDADGEDSMLKGKPKLIIRNMPWSCRDPVKLKKIFGRYGTVVEATIPRKRDGKLCGFAFVTMKKISNCRIALENTKDLKIDGRKVAVDFAVQKNRWEDYKKAQPEMNDKDDNESGNEDAEENHDDEEDENEEEDRQVDQASKNKESKRKAQNKREDFSVFVRNVPYDATEESLAPHFSKFGSVKYALPVIDKSTGLAKGTAFVAFKDQYTYNECIKNAPAAGSTSLLIGDDVMPEYVYEGRVLSITPTLVREDAGRMAEKNAAKRKEALGKAPGEKDRRNLYLLNEGRVVEGSKMADLLTNTDMEIREKSYKLRVEQLKKNPSLHLSMTRLAIRNLPRAMNDKALKALARKAVVEFATEVKNKERHPLSKEEIIRSTKEKYKFMGPDEIEAQKKKDKKSGVVKQAKVIMEVKGSTAGRSRGYGFVEFRDHKNALMGLRWLNCHAVTSDEILEGLNDDEKKQVDNDLGKGRRLCVEFAIENSNVVKRRREQLKQARTKRTRPDNEDTGDVGESENKKPKKEEATTPTNPDDKKMGDDIKRIIGFKRKRKHAKK
binding: binds

B3: Nop13 (protein, UniProt P53883 1-403)
chain: MSETELSKEDAVTKKDNEEQVKKALLDPTKKRKAEDEIEIDLKSSIPLSKKQKRLLRRGKVTLEELNAKYNIDPKSIEEYKEDAEKKKSGASEKDAQGEESTINTPTGDESGEVVKKKKKDENKYGVWIGNLSFDTTKDDLVRFFIAKTKDNEDEKSRVTEQDITRLSMPRVAAKNSNAMKNKGFCYMFFKNVEQMKAVLELSESHLNGRNMLIKDSENYSGRPDKDDLVAMSKNPPSRILFVGNLSFDVTDDLLRKHFQHCGDIVKIRMATFEDSGKCKGFAFIDFKNEEGSTNALKDKSCRKIAGRPLRMEYGEDRSKRQVRKKVENVSRNNSSSFDISNNKGYDRAGQDNGSKPEYKRSNANRRPPVDSNNRTKSSVALATAQRGSAAIVPSQGKKVKFD
binding: binds

B6: Nop2 (protein, UniProt P40991 1-618)
chain: MGSRRHKNKQAAPPTLEEFQARKEKKANRKLEKGKRPSTTQGDEVSDRKKKKSKPFKKSRKEEEEVVEEDKDLPEVDLEELSKARKSLFDDEEDDDEAGLVDEELKDEFDLEQEYDYDEDEDNDAHPIFSDDDDEADLEELNAQNMEALSKKLDEEEAEEAEEAEMELVEAENMQPRADILPTEEQEEMMAQETPNLTSTRTRMIEIVKVLENFKTLGAEGRSRGEYVDRLLKDICEYFGYTPFLAEKLFNLFSPAEAMEFFEANEIARPITIRTNTLKTRRRDLAQTLVNRGVNLQPIGSWTKVGLQIFDSQVPIGATPEYLAGHYILQAASSFLPVIALDPHENERILDMAAAPGGKTTYISAMMKNTGCVFANDANKSRTKSLIANIHRLGCTNTIVCNYDAREFPKVIGGFDRILLDAPCSGTGVIGKDQSVKVSRTEKDFIQIPHLQKQLLLSAIDSVDCNSKHGGVIVYSTCSVAVEEDEAVIDYALRKRPNVKLVDTGLAIGKEAFTSYRGKKFHPSVKLARRYYPHTYNVDGFFVAKFQKIGPSSFDDNQASAKEKETAARKEALEEGIIHSDFATFEDEEDDKYIEKSVKNNLLKKGVNPKAKRPSNEK
binding: binds

Now from value to binder:

binding: binds
B4: Nop14 (protein, UniProt Q99207 1-810)
chain: MAGSQLKNLKAALKARGLTGQTNVKSKNKKNSKRQAKEYDREEKKKAIAEIREEFNPFEIKAARNKRRDGLPSKTADRIAVGKPGISKQIGEEQRKRAFEARKMMKNKRGGVIDKRFGERDKLLTEEEKMLERFTRERQSQSKRNANLFNLEDDEDDGDMFGDGLTHLGQSLSLEDELANDEEDFLASKRFNEDDAELQQPQRKKTKAEVMKEVIAKSKFYKQERQKAQGIMEDQIDNLDDNFEDVMSELMMTQPKKNPMEPKTDLDKEYDIKVKELQLDKRAAPSDRTKTEEEKNAEAEEKKRELEQQRLDRMNGMIELEEGEERGVEDLDDGFWENEEDYEDDNDGIADSDDDIKFEDQGRDEGFSQILKKKNISISCPRTHDALLDQVKKLDLDDHPKIVKNIIKAYQPKLAEGNKEKLGKFTAVLLRHIIFLSNQNYLKNVQSFKRTQNALISILKSLSEKYNRELSEECRDYINEMQARYKKNHFDALSNGDLVFFSIIGILFSTSDQYHLVITPALILMSQFLEQIKFNSLKRIAFGAVLVRIVSQYQRISKRYIPEVVYFFQKILLTFIVEKENQEKPLDFENIRLDSYELGLPLDVDFTKKRSTIIPLHTLSTMDTEAHPVDQCVSVLLNVMESLDATISTVWKSLPAFNEIILPIQQLLSAYTSKYSDFEKPRNILNKVEKLTKFTEHIPLALQNHKPVSIPTHAPKYEENFNPDKKSYDPDRTRSEINKMKAQLKKERKFTMKEIRKDAKFEARQRIEEKNKESSDYHAKMAHIVNTINTEEGAEKNKYERERKLRGGKK

binding: binds
B5: Rpf2 (protein, UniProt P36160 1-344)
chain: MIRTVKPKNARAKRALVKREAKLVENVKQALFIPGQSCNKNLHDIMVDLSALKKPDMKRFNRKNDIHPFEDMSPLEFFSEKNDCSLMVLMTSSKKRKNNMTFIRTFGYKIYDMIELMVADNFKLLSDFKKLTFTVGLKPMFTFQGAAFDTHPVYKQIKSLFLDFFRGESTDLQDVAGLQHVISMTIQGDFQDGEPLPNVLFRVYKLKSYKSDQGGKRLPRIELVEIGPRLDFKIGRIHTPSPDMVTEAHKKPKQLEMKTKKNVELDIMGDKLGRIHMGKQDLGKLQTRKMKGLKSKFDQGTEEGDGEVDEDYEDEASYSDDGQEYEEEFVSATDIEPSAKRQKK

Source: publication PMC5327418
